Our source for the binding values is paper PMC6720575.

These are yes or no findings as the source states them, for the method shown.

Assay [1] concerns the target Ilumatobacter coccineus YM16-304 sucrose 6^F-phosphate phosphorylase (Ilumatobacter coccineus YM16-304). Briefly: crystal structure; IcSPP at 2.05 Å (space group C222_(1), one chain in the asymmetric unit); TtSPP at 1.83 Å (space group P2_(1)2_(1)2_(1), two chains in the asymmetric unit); both purified.
Assay [2] shares this target. Briefly: SEC + other: dynamic light scattering; Superdex 200 10/300 GL; 100 mM Tris pH 7.5 for IcSPP, 20 mM Bis-Tris pH 7.5 with 150 mM NaCl for TtSPP; apparent molecular weight about 60 kDa, confirmed by dynamic light scattering; both purified.
In assay [3] the target is Thermoanaerobacterium thermosaccharolyticum sucrose 6^F-phosphate phosphorylase (Thermoanaerobacterium thermosaccharolyticum) (UniProt D9TT09). Put plainly: crystal structure; IcSPP at 2.05 Å (space group C222_(1), one chain in the asymmetric unit); TtSPP at 1.83 Å (space group P2_(1)2_(1)2_(1), two chains in the asymmetric unit); both purified.
Assay [4] shares this target. Put plainly: SEC + other: dynamic light scattering; Superdex 200 10/300 GL; 100 mM Tris pH 7.5 for IcSPP, 20 mM Bis-Tris pH 7.5 with 150 mM NaCl for TtSPP; apparent molecular weight about 60 kDa, confirmed by dynamic light scattering; both purified.

B1: Ilumatobacter coccineus YM16-304 sucrose 6^F-phosphate phosphorylase (enzyme, UniProt A0A6C7EEG6 1-523)
chain: MTHAGMKASLPNRVMLNAYPDSIDGDLAGTVRMLQRPEFTDAFGLFYVLPSIFNSDLDRGFSIIDYDLNSDLASAEDLAALDELGIMLKFDMVLNHLSVGSPQFQDLLKHGDDSAFRDFFIDWNEFWEGEGELHADGHVVPSPEHLDRLFMRKPGLPILQVRFPDGSDRFYWNTFYQRVETIDGERSYLGQMDLNAESPRVWTFYRETFEKLARYGAKIVRLDAFAYLHKAVGDTNFFNTPGTWDHLDRLRTISEENGLVLLPEIHGEYGTKIHEELSDRDYPVYDFFFPGLVIDAIDSASNTHLLRWIDEIIERDIATVNMLGCHDGIPVIDLKGGPTGQGLLPDATIEAMISRLLERGGRVKNLYGADGTKVSYYQVNATFFSALGESDARLRLARAIQLFVPGTPQVWYLDLFAGANDVEAADRAGADGHKEINRTNLSAADVEAGLARPIVLDQLEMIRLRNASPAFDGRFEVVPTDDTRLQLRWQNGSTVALLDADLATERFTITHEHDGHTEILGYD
Consider B1, for which the binding entry in assay [1] and in assay [2] was “no binding” throughout.

B2: Thermoanaerobacterium thermosaccharolyticum sucrose 6^F-phosphate phosphorylase (enzyme, UniProt D9TT09 1-488)
chain: MALKNKVQLITYPDSLGGNLKTLNDVLEKYFSDVFGGVHILPPFPSSGDRGFAPITYSEIEPKFGTWYDIKKMAENFDILLDLMVNHVSRRSIYFQDFLKKGRKSEYADMFITLDKLWKDGKPVKGDIEKMFLRRTLPYSTFKIEETGEEEKVWTTFGKTDPSEQIDLDVNSHLVREFLLEVFKTFSNFGVKIVRLDAVGYVIKKIGTSCFFVEPEIYEFLDWAKGQAASYGIELLLEVHSQFEVQYKLAERGFLIYDFILPFTVLYTLINKSNEMLYHYLKNRPINQFTMLDCHDGIPVKPDLDGLIDTKKAKEVVDICVQRGANLSLIYGDKYKSEDGFDVHQINCTYYSALNCDDDAYLAARAIQFFTPGIPQVYYVGLLAGVNDFEAVKKTKEGREINRHNYGLKEIEESVQKNVVQRLLKLIRFRNEYEAFNGEFFIEDCRKDEIRLTWKKDDKRCSLFIDLKTYKTTIDYINENGEEVKYLV
For B2, the binding entry in assay [3] and in assay [4] was “no binding” throughout.
